Source: paper PMC6695195
Results are given in words; binding and its absence hold for the method and conditions named. Binding seen in cells or lysates may run through a third protein. Here binding means that the protein was enriched with, or labelled near, the bait; the list need not be complete.

Amino acid sequences for entries named in this document (tags omitted).
UniProt Q02548: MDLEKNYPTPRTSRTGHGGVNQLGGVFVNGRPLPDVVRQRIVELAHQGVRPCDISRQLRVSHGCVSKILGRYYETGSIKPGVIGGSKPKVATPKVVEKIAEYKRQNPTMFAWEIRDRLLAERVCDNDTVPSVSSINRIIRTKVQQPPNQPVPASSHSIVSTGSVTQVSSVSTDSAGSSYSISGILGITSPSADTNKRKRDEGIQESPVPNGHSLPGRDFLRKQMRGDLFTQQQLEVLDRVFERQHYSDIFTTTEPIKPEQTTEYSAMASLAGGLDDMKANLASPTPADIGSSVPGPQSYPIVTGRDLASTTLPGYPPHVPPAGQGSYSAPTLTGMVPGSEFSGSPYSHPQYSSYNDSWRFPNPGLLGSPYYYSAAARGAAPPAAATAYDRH
UniProt P27782: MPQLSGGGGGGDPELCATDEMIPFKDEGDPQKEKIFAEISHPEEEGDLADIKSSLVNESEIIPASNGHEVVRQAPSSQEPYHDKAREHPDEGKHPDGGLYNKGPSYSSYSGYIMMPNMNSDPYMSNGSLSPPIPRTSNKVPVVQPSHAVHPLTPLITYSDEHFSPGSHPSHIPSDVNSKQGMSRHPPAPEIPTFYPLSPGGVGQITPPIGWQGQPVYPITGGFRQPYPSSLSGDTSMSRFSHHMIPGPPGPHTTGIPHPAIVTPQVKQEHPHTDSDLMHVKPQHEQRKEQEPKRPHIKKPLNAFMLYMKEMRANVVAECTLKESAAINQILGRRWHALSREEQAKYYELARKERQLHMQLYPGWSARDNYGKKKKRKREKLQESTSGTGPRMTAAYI
UniProt Q03267: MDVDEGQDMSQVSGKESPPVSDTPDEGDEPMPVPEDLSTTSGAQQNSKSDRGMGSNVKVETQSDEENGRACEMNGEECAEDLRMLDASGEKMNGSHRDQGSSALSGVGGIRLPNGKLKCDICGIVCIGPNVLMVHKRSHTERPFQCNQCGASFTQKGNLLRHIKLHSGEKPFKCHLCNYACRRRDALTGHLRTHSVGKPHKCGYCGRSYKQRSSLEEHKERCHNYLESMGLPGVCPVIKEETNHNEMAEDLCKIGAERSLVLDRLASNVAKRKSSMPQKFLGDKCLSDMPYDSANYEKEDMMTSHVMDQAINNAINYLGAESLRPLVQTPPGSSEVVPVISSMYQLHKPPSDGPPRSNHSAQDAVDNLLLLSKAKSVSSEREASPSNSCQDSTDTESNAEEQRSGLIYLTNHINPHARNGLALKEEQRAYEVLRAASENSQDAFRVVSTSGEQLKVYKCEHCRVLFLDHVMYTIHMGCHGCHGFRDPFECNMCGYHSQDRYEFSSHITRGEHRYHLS
UniProt Q03347: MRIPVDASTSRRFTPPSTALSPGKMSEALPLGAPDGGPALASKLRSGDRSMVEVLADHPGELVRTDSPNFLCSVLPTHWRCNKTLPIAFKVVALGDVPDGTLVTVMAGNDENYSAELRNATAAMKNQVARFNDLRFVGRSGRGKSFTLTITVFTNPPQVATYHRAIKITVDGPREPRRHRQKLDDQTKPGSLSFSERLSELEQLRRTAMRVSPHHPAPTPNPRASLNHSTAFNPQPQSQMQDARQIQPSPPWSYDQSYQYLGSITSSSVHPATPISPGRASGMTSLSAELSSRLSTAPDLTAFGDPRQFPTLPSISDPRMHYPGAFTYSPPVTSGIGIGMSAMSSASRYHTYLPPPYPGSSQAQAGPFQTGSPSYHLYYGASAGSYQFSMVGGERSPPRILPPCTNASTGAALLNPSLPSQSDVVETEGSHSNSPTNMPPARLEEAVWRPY
UniProt Q9R1E0: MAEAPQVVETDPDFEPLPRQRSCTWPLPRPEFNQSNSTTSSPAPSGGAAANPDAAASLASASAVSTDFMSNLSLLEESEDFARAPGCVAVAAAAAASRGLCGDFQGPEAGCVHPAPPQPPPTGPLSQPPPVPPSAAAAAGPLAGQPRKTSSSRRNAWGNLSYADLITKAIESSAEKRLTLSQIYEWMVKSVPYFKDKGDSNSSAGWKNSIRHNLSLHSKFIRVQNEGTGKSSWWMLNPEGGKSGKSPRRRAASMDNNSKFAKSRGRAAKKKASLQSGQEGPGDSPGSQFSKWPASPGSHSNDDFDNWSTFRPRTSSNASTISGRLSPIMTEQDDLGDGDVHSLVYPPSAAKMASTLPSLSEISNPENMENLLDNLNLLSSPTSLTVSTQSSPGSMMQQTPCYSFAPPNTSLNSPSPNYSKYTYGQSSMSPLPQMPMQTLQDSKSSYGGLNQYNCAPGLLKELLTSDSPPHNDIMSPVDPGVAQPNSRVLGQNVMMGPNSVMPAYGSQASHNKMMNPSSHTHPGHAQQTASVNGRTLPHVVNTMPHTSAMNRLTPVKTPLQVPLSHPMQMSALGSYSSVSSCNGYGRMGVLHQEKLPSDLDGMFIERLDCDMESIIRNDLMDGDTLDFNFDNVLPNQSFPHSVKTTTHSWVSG
UniProt P42227: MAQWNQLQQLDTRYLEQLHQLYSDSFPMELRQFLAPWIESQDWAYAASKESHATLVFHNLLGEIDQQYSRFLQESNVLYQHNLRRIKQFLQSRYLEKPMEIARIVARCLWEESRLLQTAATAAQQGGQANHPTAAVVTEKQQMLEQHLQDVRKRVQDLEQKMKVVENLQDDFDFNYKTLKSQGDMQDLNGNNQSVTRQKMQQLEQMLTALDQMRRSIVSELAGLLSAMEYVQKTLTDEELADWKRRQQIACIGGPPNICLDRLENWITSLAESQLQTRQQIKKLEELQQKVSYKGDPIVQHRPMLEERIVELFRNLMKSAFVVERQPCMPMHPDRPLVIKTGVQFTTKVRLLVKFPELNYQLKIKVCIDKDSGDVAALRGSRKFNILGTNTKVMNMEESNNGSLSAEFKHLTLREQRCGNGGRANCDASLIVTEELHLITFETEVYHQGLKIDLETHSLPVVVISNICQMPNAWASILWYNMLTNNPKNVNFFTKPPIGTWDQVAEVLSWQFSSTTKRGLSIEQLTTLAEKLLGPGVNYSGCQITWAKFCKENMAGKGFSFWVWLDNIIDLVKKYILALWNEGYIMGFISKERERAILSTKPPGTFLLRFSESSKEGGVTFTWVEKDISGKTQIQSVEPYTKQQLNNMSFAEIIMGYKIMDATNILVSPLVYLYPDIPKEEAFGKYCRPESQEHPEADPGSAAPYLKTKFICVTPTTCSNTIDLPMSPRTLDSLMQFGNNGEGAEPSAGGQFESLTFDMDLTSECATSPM
UniProt O08900: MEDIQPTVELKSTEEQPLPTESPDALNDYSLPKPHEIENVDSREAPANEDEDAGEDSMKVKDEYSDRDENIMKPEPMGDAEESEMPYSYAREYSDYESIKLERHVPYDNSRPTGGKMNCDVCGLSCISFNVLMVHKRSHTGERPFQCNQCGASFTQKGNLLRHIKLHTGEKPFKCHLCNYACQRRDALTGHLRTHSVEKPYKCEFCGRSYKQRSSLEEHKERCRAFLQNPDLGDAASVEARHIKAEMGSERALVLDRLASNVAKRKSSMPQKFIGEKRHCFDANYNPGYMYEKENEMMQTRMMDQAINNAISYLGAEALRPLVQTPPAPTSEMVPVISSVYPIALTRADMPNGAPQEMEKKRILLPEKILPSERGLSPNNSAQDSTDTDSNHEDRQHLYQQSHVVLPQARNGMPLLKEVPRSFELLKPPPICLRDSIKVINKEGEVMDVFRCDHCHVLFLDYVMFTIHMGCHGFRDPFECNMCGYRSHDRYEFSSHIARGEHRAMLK
UniProt A2BH40: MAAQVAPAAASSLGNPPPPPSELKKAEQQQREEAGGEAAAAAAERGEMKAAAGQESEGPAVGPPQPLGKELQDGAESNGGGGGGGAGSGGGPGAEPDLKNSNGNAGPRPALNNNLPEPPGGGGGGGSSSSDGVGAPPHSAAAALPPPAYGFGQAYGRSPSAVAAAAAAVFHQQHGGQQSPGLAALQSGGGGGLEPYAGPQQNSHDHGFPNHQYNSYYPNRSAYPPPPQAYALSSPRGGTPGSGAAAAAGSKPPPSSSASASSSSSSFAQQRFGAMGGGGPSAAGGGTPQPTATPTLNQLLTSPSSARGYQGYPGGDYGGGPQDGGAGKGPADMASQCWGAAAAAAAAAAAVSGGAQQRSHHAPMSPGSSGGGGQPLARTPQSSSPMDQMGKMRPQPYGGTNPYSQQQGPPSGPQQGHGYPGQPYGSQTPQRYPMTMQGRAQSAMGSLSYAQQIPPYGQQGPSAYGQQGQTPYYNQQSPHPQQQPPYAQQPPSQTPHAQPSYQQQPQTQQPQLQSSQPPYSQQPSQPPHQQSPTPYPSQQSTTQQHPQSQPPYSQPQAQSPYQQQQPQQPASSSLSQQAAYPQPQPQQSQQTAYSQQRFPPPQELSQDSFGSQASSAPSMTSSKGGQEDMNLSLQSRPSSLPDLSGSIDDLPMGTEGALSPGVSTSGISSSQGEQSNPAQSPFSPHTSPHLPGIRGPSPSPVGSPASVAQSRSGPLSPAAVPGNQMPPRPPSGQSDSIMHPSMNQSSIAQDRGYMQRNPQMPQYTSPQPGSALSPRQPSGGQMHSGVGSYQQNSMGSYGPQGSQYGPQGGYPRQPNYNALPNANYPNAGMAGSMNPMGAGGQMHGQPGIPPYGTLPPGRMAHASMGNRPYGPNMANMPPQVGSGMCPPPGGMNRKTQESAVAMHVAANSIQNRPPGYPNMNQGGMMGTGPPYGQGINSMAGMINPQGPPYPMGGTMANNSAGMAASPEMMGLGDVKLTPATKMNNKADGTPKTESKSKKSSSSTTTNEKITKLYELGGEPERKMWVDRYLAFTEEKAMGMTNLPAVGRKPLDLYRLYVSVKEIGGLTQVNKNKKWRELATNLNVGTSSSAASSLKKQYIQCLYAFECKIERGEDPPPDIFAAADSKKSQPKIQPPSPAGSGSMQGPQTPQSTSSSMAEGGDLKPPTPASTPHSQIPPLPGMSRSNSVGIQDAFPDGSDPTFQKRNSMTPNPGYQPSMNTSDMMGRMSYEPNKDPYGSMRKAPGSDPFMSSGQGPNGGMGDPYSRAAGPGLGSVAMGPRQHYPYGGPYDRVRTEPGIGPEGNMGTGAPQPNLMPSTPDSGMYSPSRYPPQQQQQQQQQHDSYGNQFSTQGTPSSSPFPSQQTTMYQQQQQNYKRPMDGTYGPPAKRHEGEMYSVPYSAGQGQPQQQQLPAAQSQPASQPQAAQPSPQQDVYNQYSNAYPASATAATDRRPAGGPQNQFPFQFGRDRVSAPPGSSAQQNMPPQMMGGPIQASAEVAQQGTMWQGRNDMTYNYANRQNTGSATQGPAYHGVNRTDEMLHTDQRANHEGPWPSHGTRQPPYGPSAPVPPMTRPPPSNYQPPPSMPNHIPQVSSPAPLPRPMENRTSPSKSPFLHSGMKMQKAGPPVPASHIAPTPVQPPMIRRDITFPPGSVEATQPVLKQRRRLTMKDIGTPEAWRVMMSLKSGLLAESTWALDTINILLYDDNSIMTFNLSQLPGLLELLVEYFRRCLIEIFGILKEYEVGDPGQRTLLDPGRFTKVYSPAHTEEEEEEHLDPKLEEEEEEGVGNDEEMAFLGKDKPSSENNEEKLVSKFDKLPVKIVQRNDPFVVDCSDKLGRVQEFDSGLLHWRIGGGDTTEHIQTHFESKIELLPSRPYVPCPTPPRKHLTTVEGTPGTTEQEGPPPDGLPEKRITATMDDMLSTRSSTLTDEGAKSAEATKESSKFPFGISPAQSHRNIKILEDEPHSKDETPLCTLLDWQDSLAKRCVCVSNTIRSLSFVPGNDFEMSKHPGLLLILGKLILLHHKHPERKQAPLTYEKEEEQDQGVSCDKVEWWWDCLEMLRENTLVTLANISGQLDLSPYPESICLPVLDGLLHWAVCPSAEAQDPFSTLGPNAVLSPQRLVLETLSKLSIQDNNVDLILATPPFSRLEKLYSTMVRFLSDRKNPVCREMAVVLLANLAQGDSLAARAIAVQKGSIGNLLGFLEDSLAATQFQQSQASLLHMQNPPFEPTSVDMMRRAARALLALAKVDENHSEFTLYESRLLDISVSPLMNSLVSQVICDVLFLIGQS

B1: EBF1 (protein, UniProt Q07802 1-591)
chain: MFGIQESIQRSGSSMKEEPLGSGMNAVRTWMQGAGVLDANTAAQSGVGLARAHFEKQPPSNLRKSNFFHFVLALYDRQGQPVEIERTAFVGFVEKEKEANSEKTNNGIHYRLQLLYSNGIRTEQDFYVRLIDSMTKQAIVYEGQDKNPEMCRVLLTHEIMCSRCCDKKSCGNRNETPSDPVIIDRFFLKFFLKCNQNCLKNAGNPRDMRRFQVVVSTTVNVDGHVLAVSDNMFVHNNSKHGRRARRLDPSEGTPSYLEHATPCIKAISPSEGWTTGGATVIIIGDNFFDGLQVIFGTMLVWSELITPHAIRVQTPPRHIPGVVEVTLSYKSKQFCKGTPGRFIYTALNEPTIDYGFQRLQKVIPRHPGDPERLPKEVILKRAADLVEALYGMPHNNQEIILKRAADIAEALYSVPRNHNQLPALANTSVHAGMMGVNSFSGQLAVNVSEASQATNQGFTRNSSSVSPHGYVPSTTPQQTNYNSVTTSMNGYGSAAMSNLGGSPTFLNGSAANSPYAIVPSSPTMASSTSLPSNCSSSSGIFSFSPANMVSAVKQKSAFAPVVRPQTSPPPTCTSTNGNSLQAISGMIVPPM
B2: Ets-protein FLI1 (protein, UniProt P26323 1-452)
chain: MDGTIKEALSVVSDDQSLFDSAYGAAAHLPKADMTASGSPDYGQPHKINPLPPQQEWINQPVRVNVKREYDHMNGSRESPVDCSVSKCNKLVGGGEANPMNYNSYMDEKNGPPPPNMTTNERRVIVPADPTLWTQEHVRQWLEWAIKEYGLMEIDTSFFQNMDGKELCKMNKEDFLRATSAYNTEVLLSHLSYLRESSLLAYNTTSHTDQSSRLNVKEDPSYDSVRRGAWNNNMNSGLNKSPLLGGSQTMGKNTEQRPQPDPYQILGPTSSRLANPGSGQIQLWQFLLELLSDSANASCITWEGTNGEFKMTDPDEVARRWGERKSKPNMNYDKLSRALRYYYDKNIMTKVHGKRYAYKFDFHGIAQALQPHPTETSMYKYPSDISYMPSYHAHQQKVNFVPSHPSSMPVTSSSFFGAASQYWTSPTAGIYPNPSVPRHPNTHVPSHLGSYY

These molecules were tested against PAX5-BIRA* (fusion of BIRA* with full length human PAX5) (human) (UniProt Q02548) (assay: proximity labelling; BioID: PAX5-BIRA* retrovirally expressed in 230-238 mouse Pre-B cells, pulsed with 50 uM d-biotin; lysate on streptavidin-sepharose beads, trypsination, nano LC-MS/MS; SV40NLS-BIRA* as control; Bayesian FDR 0.02 (SAINT score ~0.80) as cut-off).

binding, binds:
LEF1 (from UniProt P27782 1-397), IKZF1 (from UniProt Q03267 1-517), RUNX1 (from UniProt Q03347 1-451), FOXO1 (from UniProt Q9R1E0 1-652), STAT3 (from UniProt P42227 1-770), IKZF3 (from UniProt O08900 1-507), ARID1A (from UniProt A2BH40 1-2283)

Target: PAX5-BIRA* (fusion of BIRA* with full length human PAX5) (human) (UniProt Q02548)
Assay: as above
Remark: another data set of the same source

binding, binds:
B1, B2
